Data reported in paper PMC9579143.
These are yes or no findings as the source states them, for the method shown. In cells and extracts the contact can be indirect. Some results given as binding are weak or reduced against the parent protein; the word gives no strength.

Amino acid sequences for entries named in this document (tags omitted).
UniProt O00308: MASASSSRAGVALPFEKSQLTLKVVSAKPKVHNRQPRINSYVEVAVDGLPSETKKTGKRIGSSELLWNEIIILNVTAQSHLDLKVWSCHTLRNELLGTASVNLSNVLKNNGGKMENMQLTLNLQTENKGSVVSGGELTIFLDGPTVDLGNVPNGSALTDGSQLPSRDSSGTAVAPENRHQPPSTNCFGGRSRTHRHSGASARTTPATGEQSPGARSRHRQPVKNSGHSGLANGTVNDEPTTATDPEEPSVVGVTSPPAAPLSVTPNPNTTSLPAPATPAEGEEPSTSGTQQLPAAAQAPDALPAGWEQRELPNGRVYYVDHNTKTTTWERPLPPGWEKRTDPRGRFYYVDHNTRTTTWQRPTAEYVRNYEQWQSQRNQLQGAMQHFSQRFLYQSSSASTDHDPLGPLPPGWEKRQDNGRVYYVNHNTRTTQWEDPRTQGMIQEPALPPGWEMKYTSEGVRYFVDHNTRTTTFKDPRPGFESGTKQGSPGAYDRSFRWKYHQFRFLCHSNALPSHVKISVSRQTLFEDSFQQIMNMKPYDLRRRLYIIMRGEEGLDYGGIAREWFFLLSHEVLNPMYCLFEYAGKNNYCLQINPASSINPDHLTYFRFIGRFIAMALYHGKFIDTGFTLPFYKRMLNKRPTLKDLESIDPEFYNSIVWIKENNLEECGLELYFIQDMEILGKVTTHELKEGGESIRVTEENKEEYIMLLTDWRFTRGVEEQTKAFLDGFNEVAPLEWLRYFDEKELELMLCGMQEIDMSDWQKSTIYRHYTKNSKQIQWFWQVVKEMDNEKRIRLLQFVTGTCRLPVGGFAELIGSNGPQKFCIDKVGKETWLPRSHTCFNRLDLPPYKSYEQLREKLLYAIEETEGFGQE
UniProt P09874: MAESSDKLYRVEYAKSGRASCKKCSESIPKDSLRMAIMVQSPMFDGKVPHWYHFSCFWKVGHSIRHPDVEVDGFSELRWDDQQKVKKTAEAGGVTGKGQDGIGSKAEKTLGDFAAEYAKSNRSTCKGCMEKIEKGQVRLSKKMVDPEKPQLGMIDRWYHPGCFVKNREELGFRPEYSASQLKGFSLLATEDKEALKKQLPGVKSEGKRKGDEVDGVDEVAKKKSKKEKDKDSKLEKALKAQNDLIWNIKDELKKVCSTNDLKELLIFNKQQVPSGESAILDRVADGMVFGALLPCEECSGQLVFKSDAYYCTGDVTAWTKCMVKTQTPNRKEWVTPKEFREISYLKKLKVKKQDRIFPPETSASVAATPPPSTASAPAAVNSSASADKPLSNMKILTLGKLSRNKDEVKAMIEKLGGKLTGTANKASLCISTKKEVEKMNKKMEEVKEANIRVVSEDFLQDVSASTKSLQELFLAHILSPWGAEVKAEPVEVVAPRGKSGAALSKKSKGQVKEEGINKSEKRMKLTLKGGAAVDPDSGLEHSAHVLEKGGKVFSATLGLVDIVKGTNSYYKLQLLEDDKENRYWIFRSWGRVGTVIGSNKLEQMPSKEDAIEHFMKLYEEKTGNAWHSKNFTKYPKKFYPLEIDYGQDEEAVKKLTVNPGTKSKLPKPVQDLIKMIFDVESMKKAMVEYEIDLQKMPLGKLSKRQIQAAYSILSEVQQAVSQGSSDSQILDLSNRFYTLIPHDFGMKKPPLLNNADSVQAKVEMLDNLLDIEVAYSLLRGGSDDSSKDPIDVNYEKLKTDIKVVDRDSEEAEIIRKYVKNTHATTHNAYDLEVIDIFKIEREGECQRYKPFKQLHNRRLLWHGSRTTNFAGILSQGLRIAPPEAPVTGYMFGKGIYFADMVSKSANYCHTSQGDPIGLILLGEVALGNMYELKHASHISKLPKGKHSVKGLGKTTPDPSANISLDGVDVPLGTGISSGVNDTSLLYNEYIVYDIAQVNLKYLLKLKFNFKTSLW

Legend:
[1] = biological target: WWP2 (human (endogenous in Jurkat)) (UniProt O00308); assay: co-IP; endogenous proteins in Jurkat cell lysate (1% NP-40, 137 mmol/L NaCl, pH 7.8), specific antibodies and magnetic beads, 4 °C 12 h; both directions; cells untreated, with Dox (0.2 μM) or with MG132
HA-WWP2 (human) = HA-WWP2 (human) (UniProt O00308); assay: co-IP; half-exogenous: Jurkat cells transfected with HA-WWP2, endogenous PARP1; lysate with specific antibodies and magnetic beads, 4 °C 12 h; with or without MG132

Substance: Poly (ADP-ribose) polymerase 1 (PARP1) (from UniProt P09874 1-1014) (enzyme)
- binding [1]: binds
- binding (HA-WWP2 (human)): binds
